Measurements taken from paper doi:10.1101/183285.
Results are given in words; binding and its absence hold for the method and conditions named. In cells and extracts the contact can be indirect. Some binding calls cover weakened binding; strength is not graded here.

Molecular target: T1, LHX2 (mouse (endogenous in retina)) (UniProt Q9Z0S2)
T1 sequence: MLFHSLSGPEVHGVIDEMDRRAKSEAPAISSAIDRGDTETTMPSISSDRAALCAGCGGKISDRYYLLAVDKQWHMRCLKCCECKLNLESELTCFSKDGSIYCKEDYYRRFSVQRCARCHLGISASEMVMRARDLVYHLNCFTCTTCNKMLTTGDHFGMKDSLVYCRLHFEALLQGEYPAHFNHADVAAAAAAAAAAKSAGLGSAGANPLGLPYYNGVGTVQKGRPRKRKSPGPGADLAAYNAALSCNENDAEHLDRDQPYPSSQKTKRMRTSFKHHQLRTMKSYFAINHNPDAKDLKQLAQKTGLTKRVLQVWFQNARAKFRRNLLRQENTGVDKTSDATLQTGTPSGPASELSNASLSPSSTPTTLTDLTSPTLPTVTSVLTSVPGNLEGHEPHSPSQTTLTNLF
Assay: co-IP

B1: LDB1 (protein, UniProt P70662 1-411)
chain: MSVGCACPGCSSKSFKLYSPKEPPNGNAFPPFHPGTMLDRDVGPTPMYPPTYLEPGIGRHTPYGNQTDYRIFELNKRLQNWTEECDNLWWDAFTTEFFEDDAMLTITFCLEDGPKRYTIGRTLIPRYFRSIFEGGATELYYVLKHPKEAFHSNFVSLDCDQGSMVTQHGKPMFTQVCVEGRLYLEFMFDDMMRIKTWHFSIRQHRELIPRSILAMHAQDPQMLDQLSKNITRCGLSNSTLNYLRLCVILEPMQELMSRHKTYSLSPRDCLKTCLFQKWQRMVAPPAEPARQQPSKRRKRKMSGGSTMSSGGGNTNNSNSKKKSPASTFALSSQVPDVMVVGEPTLMGGEFGDEDERLITRLENTQFDAANGIDDEDSFNNSPALGANSPWNSKPPSSQESKSENPTSQASQ
B1 was tested, and the binding was “binds”.
